Data as given in paper PMC7819943, “Rice protein-binding microarrays: a tool to detect cis-acting elements near promoter regions in rice”.
This is one part of the list.

By UniProt entry, the sequences of proteins in these tests, tags left out.
UniProt Q0JBA9, entry or part of it: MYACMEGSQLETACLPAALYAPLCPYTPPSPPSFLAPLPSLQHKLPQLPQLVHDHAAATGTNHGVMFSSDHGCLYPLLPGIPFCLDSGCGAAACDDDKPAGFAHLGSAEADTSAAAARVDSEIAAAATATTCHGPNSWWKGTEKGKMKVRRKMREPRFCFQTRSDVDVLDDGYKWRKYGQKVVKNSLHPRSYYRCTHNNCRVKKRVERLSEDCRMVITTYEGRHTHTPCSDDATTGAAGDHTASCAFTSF

Target: OsWRKY34 (Oryza sativa, UniProt Q0JBA9 1-250)
Experiment: protein-binding microarray (RPBM); PBS, 2% BSA, 51.3 ng/ul salmon testes DNA, 50 uM zinc acetate, 200 nM TF, 25 C, 1 h; high values mean tight binding
Details: protein: recombinant; tags: N-terminal polyhistidine and DsRed monomer fusion (pET32a); label: CyDye5-dUTP incorporated in the synthesized complementary strand; 3' TTTTT single-stranded linker to array surface; dsDNA, one strand shown
Method in brief: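 The binding signal is fluorescence intensity per array feature (arbitrary units). Readings came from an Axon 4000B scanner after a washed, 2% BSA-blocked, double-stranded custom Agilent array had been incubated for 1 h at 25 °C with 200 nM protein and 50 µM zinc acetate. The protein was a Ni–NTA-purified transcription factor fused N-terminally to polyhistidine and DsRed, expressed in E. coli BL21-CodonPlus.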

Sequence | binding signal
AACCCTTTTTCTCCCGGGTCCATCTCCATCTGCTGGATAGCGGAGTCACCTAGTGCAG | 9300 fluorescence intensity (a.u.)
AACTATTTCTACCTCTAAGCCCATTTAAGCTTCTCGGCCCCGGAGTCACCTAGTGCAG | 8800 fluorescence intensity (a.u.)
CTATGTTCATCTGCATGACTGCATGCAACTGTGATTGAACCGGAGTCACCTAGTGCAG | 8170 fluorescence intensity (a.u.)
TTTCTTCCTCGATCTTTGAATCAAATTCAGCCTTTTCTTTCGGAGTCACCTAGTGCAG | 8490 fluorescence intensity (a.u.)
CCATGTATCTAGTACCAGTAGAACAGTTGTACTACCTCCTCGGAGTCACCTAGTGCAG | 8220 fluorescence intensity (a.u.)
AAGGGAAAATCCTCTAATTTCTTTTTTTTTATTTTCTTTTCGGAGTCACCTAGTGCAG | 10100 fluorescence intensity (a.u.)
TCAGCCTCAGTACCCACCACCTCCACGCTCGCGCCGTCGGCGGAGTCACCTAGTGCAG | 12500 fluorescence intensity (a.u.)
GTTCTCTTCACTTCTTCTCAGTTTTTTAACTCTCTCTGAACGGAGTCACCTAGTGCAG | 8280 fluorescence intensity (a.u.)
CTTTCCTCTCTTTTCTGATATTTGATTGAATAGATATTCTCGGAGTCACCTAGTGCAG | 8130 fluorescence intensity (a.u.)
TGCACCTGTTATTTTCCCGTTCTCTTGTTCTTTCCATTTGCGGAGTCACCTAGTGCAG | 15700 fluorescence intensity (a.u.)
TATATTTTTGGATCTTCTAGTGTACATTATTTTGTTACAACGGAGTCACCTAGTGCAG | 8590 fluorescence intensity (a.u.)
CCGCCGCCGCCTCCTGCTCCTTCGACCTGCCCCGGCCCCGCGGAGTCACCTAGTGCAG | 8870 fluorescence intensity (a.u.)
TGGAGGAGAGGTCGCGATGGGAGTCCGAATGTGGGCGGGACGGAGTCACCTAGTGCAG | 8150 fluorescence intensity (a.u.)
TCTGGTACTTTCTCTGTTCATGTCTTTATGCACTGTTGCACGGAGTCACCTAGTGCAG | 11100 fluorescence intensity (a.u.)
ATGTGTAACTGACATGTAGGTTCTATGGTTTTAATTACTTCGGAGTCACCTAGTGCAG | 8310 fluorescence intensity (a.u.)
CGAACTCTTCTTTCAATATTGCTTATTTATAATTCCGAATCGGAGTCACCTAGTGCAG | 8700 fluorescence intensity (a.u.)
GCCATGTTTGTTTTAGTGTAAATTTGGAATTTCCTCCAGCCGGAGTCACCTAGTGCAG | 8050 fluorescence intensity (a.u.)
CGGTTGCCTCACATCTTCGGGTGCTTTCCCCTTCCTTTCCCGGAGTCACCTAGTGCAG | 9290 fluorescence intensity (a.u.)
TGTCTGCGTTATTGCTTCTCCGCCAAATTTAAGTCTTCCTCGGAGTCACCTAGTGCAG | 10600 fluorescence intensity (a.u.)
TTCTTCCGCGCCGACCTCTCCGTCCGCCCCGTCGACGAGTCGGAGTCACCTAGTGCAG | 9440 fluorescence intensity (a.u.)
GCTTTGACCGAGGTGGGAGGGTTTTGGGCCCAAGGGAGGTCGGAGTCACCTAGTGCAG | 8850 fluorescence intensity (a.u.)

Random excerpt: three records from the list
Sequence | binding signal
GCCATGTTTGTTTTAGTGTAAATTTGGAATTTCCTCCAGCCGGAGTCACCTAGTGCAG | 8050 fluorescence intensity (a.u.)
TCAGCCTCAGTACCCACCACCTCCACGCTCGCGCCGTCGGCGGAGTCACCTAGTGCAG | 12500 fluorescence intensity (a.u.)
CGGTTGCCTCACATCTTCGGGTGCTTTCCCCTTCCTTTCCCGGAGTCACCTAGTGCAG | 9290 fluorescence intensity (a.u.)

The listing continues.

Sequence | binding signal
TGCATTCCTGTCGTGCTCATTACGTAATCTCGCACCCACGCGGAGTCACCTAGTGCAG | 8700 fluorescence intensity (a.u.)
GGTTGCTCAGTTGCCGACACATTTCTGCAGACCCATTTTGCGGAGTCACCTAGTGCAG | 8080 fluorescence intensity (a.u.)
TTCACGCGTGCCACCGCCCCACACCTTCATCCGTCCATCACGGAGTCACCTAGTGCAG | 8790 fluorescence intensity (a.u.)
TGTGAATTGATCTTGATAACATCTGCTACACTGTAAATAACGGAGTCACCTAGTGCAG | 8310 fluorescence intensity (a.u.)
AGTATTAGAGTGGTCTTATTTCTCAGTCTCTTGGTCAACACGGAGTCACCTAGTGCAG | 12600 fluorescence intensity (a.u.)
TTTTATATCCCTCACCGTACGATCCAACGTTCCGATTTCTCGGAGTCACCTAGTGCAG | 8890 fluorescence intensity (a.u.)
AATCTCCTAGTCTGCCAGACATATTCACGACCTATCTTAACGGAGTCACCTAGTGCAG | 10500 fluorescence intensity (a.u.)
CACATTTGATCTCTCATTTTCTGGGTCTGTTCTGTCTGCTCGGAGTCACCTAGTGCAG | 14100 fluorescence intensity (a.u.)
ATTGTTTTATTTAGGTGATTAAATTTGTTTTCATTTATATCGGAGTCACCTAGTGCAG | 9500 fluorescence intensity (a.u.)
TTTCCGTGTCCAACTTACCCTGAGTTTCTGTGTCCAACTTCGGAGTCACCTAGTGCAG | 11400 fluorescence intensity (a.u.)
TGTCCCACTTTGTCCATGTATATCACTGTTCCCCGTGTTGCGGAGTCACCTAGTGCAG | 8220 fluorescence intensity (a.u.)
AAGTGGTTTATGAGAATCCTATTAGTGTCGTGTTGTATAGCGGAGTCACCTAGTGCAG | 10100 fluorescence intensity (a.u.)
CCTCTCTTATCCTCTCCTCCACGGCTCCACGTCTATTCTCCGGAGTCACCTAGTGCAG | 8250 fluorescence intensity (a.u.)
ATTGGTATTCTACATGTCACATCCATCAATTCTAATTCTACGGAGTCACCTAGTGCAG | 8730 fluorescence intensity (a.u.)
TTTATCCACTATAACTCTATTTAGCTCACTATAGTTGTTTCGGAGTCACCTAGTGCAG | 10900 fluorescence intensity (a.u.)
TTATCTCTATTACCCCTTCTAACATGCTTCTATGTTTTTTCGGAGTCACCTAGTGCAG | 10300 fluorescence intensity (a.u.)
CGGGACGAGGCCCTTCTTCTTGCGCTCCTCCAGGCGCTGCCGGAGTCACCTAGTGCAG | 8170 fluorescence intensity (a.u.)
CTCCTCGGTGCGGTTGCGGTTTCGTTTTCGTTTTCTTTCCCGGAGTCACCTAGTGCAG | 13400 fluorescence intensity (a.u.)
TGTAAGAACTTAAGTGTAGTGGCAGTGGCCCCAAATTTTTCGGAGTCACCTAGTGCAG | 8660 fluorescence intensity (a.u.)
CTGTTACAAGTATTACTTTGCCCTCAACCTCACTATTGTACGGAGTCACCTAGTGCAG | 8970 fluorescence intensity (a.u.)
TTGGGAGTACGGGTTTTGTGTGTGTTTTCTCCACTAAAATCGGAGTCACCTAGTGCAG | 9970 fluorescence intensity (a.u.)
